According to PubChem BioAssay AID2685 (National Center for Advancing Translational Sciences (NCATS), 2010):
The list shows a part of the results. These are further read-outs of the screen, such as a control signal, another cell line or another target. No call is given for them. Most of these compounds were active or inconclusive in the main read-out, so they are no random draw. The note in brackets gives the kind of curve behind each potency; many fits are weak.

Experiment: qHTS Assay for Lipid Storage Modulators in Drosophila S3 Cells;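 on cell number change: cells counted by Cell Tracker Red CMTPX staining in the red channel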
Settings: BODIPY lipid droplet fluorescence, 18-24 h; for cell number change: measured here: cell count max response, cells fed with added oleic acid
Summary of the method: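 Drosophila S3 cells got compounds at several concentrations plus oleic acid (400 uM solution). Laser-scanning cytometry with 488 nm excitation read lipid droplets at 500-530 nm and cells at 575-640 nm. Percent activity was relative to 20 uM Triacsin C.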

[1] = measured here: lipid fluorescence (Fed channel) AC50, cells fed with added oleic acid
[2] = measured here: cell number channel AC50, cells fed with added oleic acid

Compound	cell number change	AC50 [1]	AC50 [2]
CN(CCCCCCCCCCN(C)C(=O)Oc1cccc([N+](C)(C)C)c1)C(=O)Oc1cccc([N+](C)(C)C)c1	-5.41%	6510 nM [rising, partial curve]	–
CC1=C(C(=O)OC(C)C)C(c2cccc([N+](=O)[O-])c2)n2c(cc(=O)[nH]c2=S)N1 (centres undefined)	1.13%	820 nM [rising, full curve, poor fit]	–
CCN(CC)CCNC(=O)c1cn(CC)c2ccc(S(=O)(=O)N3CCc4ccccc4C3)cc2c1=O	31.6%	16400 nM [rising, partial curve]	411 nM [rising, full curve, poor fit]
COCCNS(=O)(=O)c1cc(OC)c(Cl)cc1Cl	-1.52%	103 nM [falling, full curve, poor fit]	4.61 nM [falling, full curve, poor fit]
CSCCC(NC(=O)c1ccco1)C(=O)NCC1CCCCC1 (centres undefined)	5.97%	731 nM [rising, partial curve, poor fit]	–
CCSc1nnc(NC(=O)C(C)(C)C)s1	36%	–	16400 nM [rising, partial curve, poor fit]
O=C(NC1CCCCC1)c1ccc(N2CCOCC2)c([N+](=O)[O-])c1	-7.92%	6510 nM [falling, single point]	–
O=Cc1ccc(-c2ccccc2C(=O)O)o1	28.2%	–	–
C/C=C\C=C\C(=O)N1CC2(CC(c3cccc(NC(=O)COc4ccc(Cl)cc4)c3)=NO2)C[C@H]1C(N)=O (some centres undefined)	-53%	5170 nM [falling, full curve]	920 nM [falling, full curve]
N#Cc1c(=O)c2nc(NCCCO)ncc2n2c(=O)c3ccccc3[nH]c12	4.78%	5.17 nM [falling, full curve, poor fit]	366 nM [falling, partial curve, poor fit]
COc1ccc(NC(=O)COC(=O)/C=C/c2cnc3ccccc3n2)cc1	-70.5%	–	5.17 nM [falling, full curve, poor fit]
C=CCn1c(=NC(=O)c2cc(-c3cccs3)nc3ccccc23)sc2cc(S(N)(=O)=O)ccc21	22%	3260 nM [rising, partial curve]	–
NC(=O)c1ccc(NC(=O)c2cncn2-c2ccccc2)cc1	-13.2%	1780 nM [rising, partial curve]	–
COc1ccc(N2CCN(c3cc(C)c4cccc(C)c4n3)CC2)cc1	-50.9%	5800 nM [falling, full curve]	29100 nM [falling, single point]
Cc1ccc(S(=O)(=O)N2CCCC2)cc1C(=O)NCCN1CCOCC1	15.7%	–	–
CC(=O)c1ccc(N(CC(=O)NCC2CCCO2)C(=O)CCC(=O)Nc2cc(C)on2)cc1 (centres undefined)	7.08%	–	–
COc1ccc(COC(=O)C2CCN(S(=O)(=O)c3ccc(C)cc3)CC2)cc1	-25%	–	2590 nM [rising, partial curve]
CC(NC(=O)c1ccccc1SCC(=O)N1CCCC1)c1ccc(F)cc1 (centres undefined)	22.2%	–	–

Nothing new here: two of the compounds above.
Compound	cell number change	AC50 [1]	AC50 [2]
COc1ccc(COC(=O)C2CCN(S(=O)(=O)c3ccc(C)cc3)CC2)cc1	-25%	–	2590 nM [rising, partial curve]
CC(NC(=O)c1ccccc1SCC(=O)N1CCCC1)c1ccc(F)cc1 (centres undefined)	22.2%	–	–

Remaining list, next part.

Compound	cell number change	AC50 [1]	AC50 [2]
CCN(CC)CCCNc1nnc(C)c(=O)[nH]1	19.8%	–	4.11 nM [rising, full curve, poor fit]
O=C(Cn1cc2c(n1)CCCC2)NC1CCN(Cc2ccccc2)CC1	13.1%	–	–
CC(=O)c1ccc(NC(=O)C(C)OC(=O)C2CCN(c3ccc(C(F)(F)F)cn3)CC2)cc1 (centres undefined)	54.5%	–	18400 nM [rising, single point]
OCCN1CCN(c2ncnc3c2sc2nc(N4CCOCC4)c4c(c23)CCC4)CC1	-18.5%	820 nM [falling, full curve]	–
CCC(=O)Nc1nnc(S(=O)(=O)N(C)c2cc(C)cc(C)c2)s1	-43.3%	–	–
Cc1ccc(S(=O)(=O)NNC(=O)NC23CC4CC(CC(C4)C2)C3)cc1	–	29100 nM [falling, single point]	–
COc1ccccc1-c1nnc(SCC(=O)c2ccc(C3CCCCC3)cc2)n1Cc1ccco1	6.12%	20600 nM [rising, single point]	116 nM [falling, full curve, poor fit]
CC(C)(C)[C@H]1CCC(=O)N([C@H](CC#N)Cc2ccccc2)CC1	–	32600 nM [falling, partial curve, poor fit]	–
O=S(=O)(Nc1nc2ccccc2nc1NCC1CCCO1)c1cc(Cl)ccc1Cl (centres undefined)	20.9%	13000 nM [rising, partial curve]	–
COc1cc(C2C(C(=O)c3ccc(C)o3)=C(O)C(=O)N2c2cc(C)on2)ccc1O (centres undefined)	21.2%	14600 nM [falling, partial curve, poor fit]	–
COc1cc(C(C(=O)NC2CCCC2)N(CCO)C(=O)Cn2nnc(-c3ccc(C)o3)n2)ccc1O (centres undefined)	19.6%	6510 nM [falling, single point]	–
CCC1CCc2sc(C(=O)O)cc2C1 (centres undefined)	–	6510 nM [rising, single point]	16.4 nM [rising, full curve, poor fit]
OCC1(Cc2ccccc2C(F)(F)F)CCN(Cc2ccc3c(c2)CCO3)CC1	–	1460 nM [falling, full curve]	–
CCc1ccc(OCc2nnc(SCC(=O)Nc3cccc(C(=O)N4CCOCC4)c3)o2)cc1	-14.1%	92 nM [falling, full curve, poor fit]	–
Cc1onc(-c2ccccc2)c1C(=O)Nc1sc2c(c1C#N)CCC2	–	–	2310 nM [rising, single point]
CCOC(=O)/C(C#N)=C\c1ccc(OCC(=O)Nc2ccc(C)cc2C)c(OC)c1	4.31%	65.1 nM [rising, full curve, poor fit]	2310 nM [rising, partial curve, poor fit]
Cc1nonc1OCCNCc1c(C(=O)N2CCCCCCC2)nc2ccc(Cl)cn12	-9.44%	23100 nM [falling, partial curve]	–
COc1ccc(C(=O)O)cc1S(=O)(=O)Nc1ccc(C)cc1	-43.8%	–	184 nM [falling, full curve]
